Data reported in the supplement of paper PMC10338343.
± gives the standard deviation. The entries are a selection whose mix differs from that of the whole data set. The uncertainty is large for many entries.

These sequences were tested on EfPiwi piRISC loaded with piRNA #1 (26 nt) (assay: pre-steady-state target cleavage rate (min^-1); guide: piRNA #1 5'p-UGAGGUAGUAGGUUGUAUAGUAUCCA; MIWI and MILI are mouse PIWI proteins and EfPiwi is from a freshwater sponge; tags in brackets are library labels; higher = faster piRNA-guided slicing of the target). Conditions: auxiliary factor: 500 nM Ephydatia muelleri Gtsf1.
Outline: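 In this Cleave-'n-Seq assay, uncleaved targets were sequenced and normalised to depth and to weakly complementary targets. They came from a transcribed, DNA-blocked target RNA library […] mixed with 1 nM active affinity-purified piRISC carrying one synthetic guide, with or without 500 nM GTSF1 partner protein, in HEPES–potassium acetate buffer at 33 °C for 0–8 or 0–960 min. After three trials were pooled and k3 was capped at 0.0001 min^-1, the pre-steady-state cleavage rate was obtained from a burst-and-steady-state fit.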

Sequence	pre-steady-state target cleavage rate
GGAGACCUUACUUUACAACGUACUACCUCA	0.00258 ± 0.0039
GGAGACGAUACUAUACACCUACUACCUCA	0.0134 ± 0.0055
GGAGAGGAUACUAUACAACCUACUACCCCA	0.00713 ± 0.0022
GGAGACCUAUCUAUACUACCUAGUACCUCA	0.00113 ± 0.0048
GGAGACCUUACCUAUACAACCUACUACCUCA	0.0117 ± 0.0057
GGAGUGGAUACUAUGACAACCUACUACCUCA	0.0114 ± 0.0053
GGAGAGGAUACUAUACUACCUACUAGCUCA	0.00173 ± 0.0021
GGAGACCAAUCUAUACAACCUACUACCUCA	0.0121 ± 0.0056
GGAGAGGAUACUAAACAAGCUACUACCUCA	0.00412 ± 0.0017
GGAGUGGAUACUAUACAACCUACUACCUAA	0.151 ± 0.054
GGAGUGGAUACUAUACUACGUACUACCUCA	0.00381 ± 0.0021
GGAGACCUAUGAUAACAACCUACCACCUCA	0.000204 ± 0.015
GGAGACCAUACUAUACUUGCUACUACCUCA	0.00107 ± 0.0083
GGAGAGGAUACUAUACAACCUACAACCUCA	0.00428 ± 0.0019
GGAGACCUAUGAUUUGUACCUACUACCUCA	0.000793 ± 0.0073
GGAGACGGAUACUAUACAACCUACUACCUCA	0.221 ± 0.062
GGAGACCUAACUAUACAACCUACUAGCUCA	0.00459 ± 0.0036
GGAGACCUAACUUUACAACGUACUACCUCA	0.00252 ± 0.0048
GGAGACCUAACUAUACUACCUACUACGUCA	0.00204 ± 0.0056
GGAGACGAUACUAUACAACUACUACCUCA	0.00742 ± 0.0033
GGAGUGGAUAGUAUACAACCUACUUCCUCA	0.00264 ± 0.0019
GGAGACGAUACUAUACUUGCUACUACCUCA	0.00176 ± 0.0051
GGAGACCUAACUAAACAACCUACUACCACA	0.000381 ± 0.024
GGAGACCUAUGUAUACAAGCUACUAGCUCA	0.0012 ± 0.0054

Quoted at random: 2 records from the list, in no set order.
Sequence	pre-steady-state target cleavage rate
GGAGACCUUACUUUACAACGUACUACCUCA	0.00258 ± 0.0039
GGAGAGGAUACUAUACAACCUACAACCUCA	0.00428 ± 0.0019
